Measured values taken from article PMC7862700.
The list shows a part of the results, in another mix than the full data. At the low end of the ranking the order means little.

The sequences below were run against SPI1 (UniProt P17947) (assay: DAPPL (digital affinity profiling via proximity ligation, sequencing)). Conditions: 10 mM Tris-HCl pH 7.5, 50 mM NaCl, 1 mM DTT, 4% glycerol, room temperature, 30 min; GST-TFs on glutathione beads, 16-mer random dsDNA library, 0.1% …; high values mean tight binding; double strand, one strand shown; scale: fold enrichment (6-mer frequency, TF over GST control).

| Sequence | binding signal |
| --- | --- |
| CAGGTA | 0.77 |
| GCCCGT | 0.625 |
| GGGGAC | 0.412 |
| GTCCAG | 0.676 |
| GGGCGT | 0.506 |
| GCCAAA | 0.939 |
| GAGGGA | 0.512 |
| GGTACG | 0.826 |
| GGTCGG | 0.288 |
| GGTGCA | 0.826 |
| GACAAT | 0.915 |
| GCACGG | 0.791 |
| AAACGT | 0.894 |
| GACGCA | 0.5 |
| GAGATT | 0.746 |
| GAGACT | 0.354 |
| CAAAGG | 0.816 |
| CATGTC | 0.791 |
| GCAAGT | 0.791 |
| AGAGTT | 0.796 |

A different layout for part of the listing above.
Sequence	binding signal
GACAAT	0.915
GCACGG	0.791
AAACGT	0.894
GACGCA	0.5
GAGATT	0.746
GAGACT	0.354
CAAAGG	0.816
CATGTC	0.791
GCAAGT	0.791
AGAGTT	0.796

Additional results:

| Sequence | binding signal |
| --- | --- |
| GAGGAA | 1.64 |
| GGTTAG | 0.783 |
| CGGGCC | 0.737 |
| CGTGAA | 0.456 |
| GGCGAA | 0.721 |
| GACAAG | 0.722 |
| GTCAGC | 0.747 |
| GCGTGT | 0.62 |
| ACCAGT | 0.459 |
| TTCGTG | 0.822 |
| TAGGGA | 1.05 |
| GAACGT | 0.39 |
| AGACGT | 0.437 |
| GGGAGG | 0.312 |
| TTGGAG | 0.53 |
| GTGTCA | 0.877 |
| GGGATC | 0.623 |
| CAGGCC | 0.743 |
| GAACGC | 0.763 |
| GGACGA | 0.605 |
